Measured values reported in PubChem BioAssay AID652054 (National Center for Advancing Translational Sciences (NCATS), 2013).
In all, about 360,000 compounds went through this assay and about 9,100 (2.5%) were called active. The inconclusive results got no clear call from the source; some entries with a clear call stand among them for comparison. No stated cut-off is given here; in the data, active means max response below about -50%; inconclusive means no clear call, values can overlap the other calls; inactive means above that.

Amino acid sequences for entries named in this document (tags omitted).
UniProt P35462, whole entry, looked up: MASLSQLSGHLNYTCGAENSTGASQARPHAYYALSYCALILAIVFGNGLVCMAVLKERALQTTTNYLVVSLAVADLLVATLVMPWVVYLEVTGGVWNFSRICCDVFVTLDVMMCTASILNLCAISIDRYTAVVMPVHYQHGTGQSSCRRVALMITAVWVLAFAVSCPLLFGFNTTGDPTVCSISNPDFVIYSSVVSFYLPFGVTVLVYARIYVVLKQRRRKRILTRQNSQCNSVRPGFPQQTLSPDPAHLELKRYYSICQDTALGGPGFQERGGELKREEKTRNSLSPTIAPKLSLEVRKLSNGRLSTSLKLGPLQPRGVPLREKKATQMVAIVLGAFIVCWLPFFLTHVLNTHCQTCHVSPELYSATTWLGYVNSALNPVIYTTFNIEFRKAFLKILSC

target: D(3) dopamine receptor (Homo sapiens) (UniProt P35462); experiment: qHTS of D3 Dopamine Receptor Antagonist: qHTS; details: D3R cells, DiscoveRx beta-arrestin luminescence, antagonist mode; hits give low values
Outline: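 Cells expressing the human receptor were seeded at 1500 cells/well, incubated overnight at 37 degrees C in 5% CO2, then exposed to library compounds with dopamine controls for 90 minutes at 37 degrees C before luminescent detection.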
On the % scale 0 is the no-effect control and ±100 the full control effect.

Row | Compound | max response, negative = inhibition
1 | COc1ccc(O)c(CN2CCCC(C(=O)c3sccc3C)C2)c1 (stereo unspecified) | inconclusive: -31.4%
2 | COc1ccccc1CNCCc1ccc(F)cc1 | active: -55.4%
3 | O=C(COc1ccccc1)N1CCN(Cc2c[nH]c3ccccc23)CC1 | inconclusive: -47.1%
4 | Cn1c(O)c(/C=C2\N=c3ccccc3=C2CCNC(=S)NC2CC2)c(=O)n(C)c1=O | inactive: -1.6%
6 | COC(=O)C1=C(c2ccc(OCc3ccccc3)cc2)C[C@@H]2CC[C@H]1N2C(=O)NCCCCc1ccccc1 | inconclusive: -43.7%
7 | CCCCC1(CCCC)C(=O)NC(=Nc2cccc(C)c2)NC1=O | inconclusive: -45.7%
8 | CCCc1nc2ccccc2c(=O)n1-c1cccc(OC)c1 | inactive: -21%
9 | COc1ccc(-c2ccc3c(c2)CN(c2cccc(Cl)c2)Cc2cnnn2-3)cc1 | inconclusive: -35.8%
10 | O=C(CCN1CCCCC1)Nc1ccc(Br)cc1C(=O)c1ccccc1 | inconclusive: -32.9%
11 | O=C(NCCN1CCC2(CC1)C(=O)NCN2c1cccc(F)c1)c1ccc2ccccc2c1 | active: -89.5%
12 | Cc1ccsc1C(=O)C1CCCN(Cc2ccccc2O)C1 (stereo unspecified) | active: -52.8%
13 | Cc1[nH]c2ccccc2c1C(=O)CN1CC=C(c2ccccc2)CC1 | inconclusive: -32.2%
14 | COc1cc(C)c(CN2CC=C(c3ccc(F)cc3)CC2)cc1C | active: -75.9%
15 | CCCn1cc(CN2CCCC(C(=O)c3cccc(OC)c3)C2)c(C)n1 (stereo unspecified) | inconclusive: -48.9%
16 | O=[N+]([O-])c1ccc(N2CCOCC2)c2c1no[n+]2[O-] | inconclusive: -43.3%
17 | C=C1C(=O)O[C@@H]2C[C@@H](C)[C@H]3C=CC(=O)[C@]3(O)C[C@@H]12 | inconclusive: -33.3%
18 | CCc1cccc(CC)c1N(COC)C(=O)CCl | inactive: 0.582%
19 | CNc1ccc2oc(C[C@H]3O[C@@]4(CC[C@H]3C)O[C@H]([C@H](C)C(=O)c3ccc[nH]3)[C@H](C)C[C@H]4C)nc2c1C(=O)O | inconclusive: -48.8%

Structural class, the entries above with a carbonyl joined to an NH by a bond outside any ring.
Row | Compound | max response, negative = inhibition
6 | COC(=O)C1=C(c2ccc(OCc3ccccc3)cc2)C[C@@H]2CC[C@H]1N2C(=O)NCCCCc1ccccc1 | inconclusive: -43.7%
10 | O=C(CCN1CCCCC1)Nc1ccc(Br)cc1C(=O)c1ccccc1 | inconclusive: -32.9%
11 | O=C(NCCN1CCC2(CC1)C(=O)NCN2c1cccc(F)c1)c1ccc2ccccc2c1 | active: -89.5%

The list goes on.

Row | Compound | max response, negative = inhibition
20 | CNC(=O)c1cccn(Cc2cc(C(F)(F)F)cc(C(F)(F)F)c2)c1=O | inactive: 15.3%
21 | Fc1ccccc1CNCCc1ccc2c(c1)OCO2 | inconclusive: -41.3%
22 | O=C(/C=C/c1ccc(Br)cc1)NC(=S)N1C[C@H]2C[C@H](C1)c1cccc(=O)n1C2 | inactive: 27.3%
23 | Cc1ccccc1NS(=O)(=O)c1ccc(OCC(=O)N2CCN(C)CC2)cc1 | inactive: -10.2%
24 | Cc1nn(Cc2ccccc2Cl)c(C)c1C(=O)OCC(=O)NC1CCCC(C)C1C (stereo unspecified) | inconclusive: -44.2%
25 | Cc1cccc(CN2CCN(c3ccc(Cl)cc3)CC2)c1 | active: -94.6%
26 | CCCCCCC(=O)c1c(O)n(-c2ccccc2OC)c(=O)[nH]c1=O (tested in a mixture with another compound) | inconclusive: -30.3%
27 | CN1CCN(c2cc(N3CCCCCC3)c(F)cc2[N+](=O)[O-])CC1 | inconclusive: -34.8%
28 | Fc1ccccc1CN1CCN(c2ccc(Cl)cc2)CC1 | inconclusive: -42.3%
29 | CC(C)c1ccc(C2NCc3ccccc3-n3cccc32)cc1 (stereo unspecified) | inconclusive: -38.4%
30 | CN(C)c1ccc(C=C2C(=O)NC(=S)NC2=O)cc1[N+](=O)[O-] | inconclusive: -38.5%
31 | NCCc1ccc(O)cc1 | inactive: 3.12%
32 | CCOC(=O)[C@]12Cc3cc(C)ccc3[C@H]1N(C1CCCCC1)C(=O)c1ccccc12 | inconclusive: -43.6%
33 | CN1C(=O)/C(=C\c2ccc(N3CCCCCC3)cc2)C(=O)NC1=S | inactive: 4.39%
34 | O=C(Cc1ccccc1)N1CCN(CC2CC=CCC2)CC1 (stereo unspecified) | active: -53.5%
35 | COc1ccc(N=Nc2c(O)[nH]c(=S)[nH]c2=O)cc1 | inconclusive: -35%
36 | Cc1ccc(CNC2=NCCS2)cc1 | inactive: -8.03%
37 | CCOC(=O)[C@]12Cc3cc(C)ccc3[C@H]1N(Cc1ccccc1)C(=O)c1ccccc12 | inactive: 27.5%
38 | CCCCC/C(=N\O)c1c[nH]c2ccccc12 | inconclusive: -30.3%

Row | Compound | max response, negative = inhibition
39 | CCOC(=O)[C@]12Cc3ccccc3[C@H]1N(C(C)C)C(=O)c1ccccc12 | inconclusive: -37.4%
40 | Cc1ccc(N2C(=O)NC(=O)/C(=C\c3cc(C)n(-c4cc(C(=O)O)cc(C(=O)O)c4)c3C)C2=O)cc1 | active: -53.5%
41 | CCN1CCN(Cc2cc3c(cc2[N+](=O)[O-])OCO3)CC1 | inconclusive: -45.6%
42 | CN1CCN(C(=O)COc2ccc(-c3nc4ccccc4s3)cc2)CC1 | inconclusive: -32.9%
43 | Cc1ccc(CN2C3CCCC2CC(NC(=O)Nc2cccc(F)c2)C3)cc1 (stereo unspecified) | active: -99.1%
44 | O=[N+]([O-])c1cccnc1N1CCCNCC1 | inconclusive: -46.1%
45 | O=C1NC(=S)N(c2ccccc2)C(=O)/C1=C/c1ccco1 | inconclusive: -32.2%
46 | CCN1/C(=C/C=C/C2=[N+](CC)c3ccccc3C2(C)C)C(C)(C)c2ccccc21 | active: -71.6%
47 | CC(=Nc1c(C)n(C)n(-c2ccccc2)c1=O)c1c(O)n(Cc2ccccc2)c(=O)[nH]c1=O | active: -50.7%
48 | CCOCCCNC(=O)CN1C2CCC1CC(O)(c1ccc(OC)cc1)C2 (stereo unspecified) | active: -72.3%
49 | CN(Cc1c[nH]c2ccccc12)C1CCCCC1 | inactive: -3.04%
50 | O=[N+]([O-])c1ccccc1CN1CC=C(c2ccc(F)cc2)CC1 | active: -68.2%
51 | Cc1ccsc1C(=O)C1CCCN(Cc2cc(C(C)C)n[nH]2)C1 (stereo unspecified) | active: -80.8%
52 | Fc1ccc(C(OCCN2CCCC2)c2ccc(Br)cc2)cc1 (stereo unspecified) | active: -73.3%
53 | CN1CN(c2ccccc2)C2(CCN(CCCSc3ccccc3NC(=O)/C=C/c3ccccc3)CC2)C1=O | active: -107%
54 | O=C(CSC1c2ccccc2-c2ccccc21)N/N=C/c1ccccc1 | inconclusive: -36.3%
55 | O=C(c1ccccc1)C(CN1CCCC1)c1ccccc1 (stereo unspecified) | active: -56.3%
56 | O=C(NCC1=C(c2cccc3ccccc23)C[C@@H]2CC[C@H]1N2Cc1ccco1)c1cccs1 | active: -50.6%
